The target of assay [1] is human FGF2 (human) (UniProt P09038). Briefly: SPR, FGF2 binding activity and Kd compared for HEK 293 and CHO material.
For assay [2] the target is unchanged. Briefly: SPR (BIACORE T200), hFGF2 immobilised on CM5 chip, sFGFR3 polypeptide as analyte, five successive injections; concentrations not given.

Chains of the proteins cited; added tags and fusions are not shown. Lines headed by an entry give the natural chain unless they say otherwise; changes in a name come on top.
UniProt P09038: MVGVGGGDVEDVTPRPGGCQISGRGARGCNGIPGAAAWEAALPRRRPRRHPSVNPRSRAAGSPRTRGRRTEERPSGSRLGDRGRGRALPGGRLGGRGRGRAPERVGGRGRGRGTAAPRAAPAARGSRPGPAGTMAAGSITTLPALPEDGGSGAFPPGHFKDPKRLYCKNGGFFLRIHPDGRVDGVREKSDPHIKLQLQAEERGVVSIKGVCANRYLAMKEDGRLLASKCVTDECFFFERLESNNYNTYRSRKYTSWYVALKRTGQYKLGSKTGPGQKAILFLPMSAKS

Results are given in words; binding and its absence hold for the method and conditions named. Some results given as binding are weak or reduced against the parent protein; the word gives no strength.

B1: sFGFR3_Del4-LK1-LK2 (receptor)
chain: ESLGTEQRVVGRAAEVPGPEPGQQEQLVFGSGDAVELSCPPPGGGPMGPTVWVKDGTGLVPSERVLVGPQRLQVLNASHEDSGAYSCRQRLTQRVLCHFSVRVTDAPSSGDDEDGEDEAEDTGVDTGAPYWTRPERMDKKLLAVPAANTVRFRCPAAGNPTPSISWLKNGREFRGEHRIGGIKLRHQQWSLVMESVVPSDRGNYTCVVENKFGSIRQTYTLDVLERSPHRPILQAGLPANQTAVLGSDVEFHCKVYSDAQPHIQWLKHVEVNGSKVGPDGTPYVTVLKVSLESNASMSSNTSGSGSGSGSGSGSGSVVFPYFPRLGRYNLNFHEAQQACLDQDAVIASFDQLYDAWRGGLDWCNAGWLSDGSVQYPITKPREPCGGQNTVPGVRNYGFWDKDKSRYDVFCFTSNFNGRFYYLIHPTKLTYDEAVQACLNDGAQIAKVGQIFAAWKILGYDRCDAGWLADGSVRYPISRPRRRCSPTEAAVRFVGFPDKKHKLYGVYCFRAYN
Regarding B1, the binding result in assay [1] and in assay [2] was “binds” each time.

B2: sFGFR3_Del4-LK1-LK2-C253S (receptor)
soluble receptor polypeptide: ESLGTEQRVVGRAAEVPGPEPGQQEQLVFGSGDAVELSCPPPGGGPMGPTVWVKDGTGLVPSERVLVGPQRLQVLNASHEDSGAYSCRQRLTQRVLCHFSVRVTDAPSSGDDEDGEDEAEDTGVDTGAPYWTRPERMDKKLLAVPAANTVRFRCPAAGNPTPSISWLKNGREFRGEHRIGGIKLRHQQWSLVMESVVPSDRGNYTCVVENKFGSIRQTYTLDVLERSPHRPILQAGLPANQTAVLGSDVEFHSKVYSDAQPHIQWLKHVEVNGSKVGPDGTPYVTVLKVSLESNASMSSNTSGSGSGSGSGSGSGSVVFPYFPRLGRYNLNFHEAQQACLDQDAVIASFDQLYDAWRGGLDWCNAGWLSDGSVQYPITKPREPCGGQNTVPGVRNYGFWDKDKSRYDVFCFTSNFNGRFYYLIHPTKLTYDEAVQACLNDGAQIAKVGQIFAAWKILGYDRCDAGWLADGSVRYPISRPRRRCSPTEAAVRFVGFPDKKHKLYGVYCFRAYN
Take B2: the binding entry in assay [2] is reported as “binds”.

B3: sFGFR3_Del4-LK1-LK2-D3 (receptor)
soluble receptor polypeptide: ESLGTEQRVVGRAAEVPGPEPGQQEQLVFGSGDAVELSCPPPGGGPMGPTVWVKDGTGLVPSERVLVGPQRLQVLNASHEDSGAYSCRQRLTQRVLCHFSVRVTDAPSSGDDEDGEDEAEDTGVDTGAPYWTRPERMDKKLLAVPAANTVRFRCPAAGNPTPSISWLKNGREFRGEHRIGGIKLRHQQWSLVMESVVPSDRGNYTCVVENKFGSIRQTYTLDVLERSPHRPILQAGLPANQTAVLGSDVEFHCKVYSDAQPHIQWLKHVEVNGSKVGPDGTPYVTVLKTAGANTTDKELEVLSLHNVTFEDAGEYTCLAGNSIGFSHHSAWLVVLPVSLESNASMSSNTSGSGSGSGSGSGSGSVVFPYFPRLGRYNLNFHEAQQACLDQDAVIASFDQLYDAWRGGLDWCNAGWLSDGSVQYPITKPREPCGGQNTVPGVRNYGFWDKDKSRYDVFCFTSNFNGRFYYLIHPTKLTYDEAVQACLNDGAQIAKVGQIFAAWKILGYDRCDAGWLADGSVRYPISRPRRRCSPTEAAVRFVGFPDKKHKLYGVYCFRAYN
For B3, the binding result in assay [2] is “binds”.

Source of the values: patent publication US20210309718A1.
